Where “and” joins values, the source holds several entries; their conditions need not be identical. Identical values can stand only once. The list shows a part of the results. Repeats are few or missing, and single values can be far off.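 The assay uses human stem cell-derived hepatocyte-like cells whose DGUOK gene was disrupted by CRISPR, modeling liver mtDNA depletion syndrome. ATP signals were scored within each plate, and any drug with a score of at least 3 was called a primary hit.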

In this assay the test system is DGUOK Δ14/Δ5 iPSC-derived hepatocyte-like cells (SV20). Nature of the assay: ATP level (CellTiter-Glo luminescence) Z score relative to plate distribution, under 2-DG glycolysis block; higher = more cellular ATP (rescue of mitochondrial ATP production). As to conditions: 5 µM; treatment time: day 15 to day 20 of differentiation (5 days); 2-deoxy-D-glucose: 20 mM for 24 h before assay.
Regarding `OC(CCN1CCCCC1)(c1ccccc1)c1ccccc1`, the ATP level is inactive: -2.14.

`O=C(O)c1cc(=O)c2ccccc2[nH]1`: the ATP level is inactive: -2.94.

For the compound `CC(C)NNC(=O)c1ccncc1`, the ATP level was inactive: 0.798.

As to `CSCC[C@H](NC(=O)[C@H](Cc1c[nH]c2ccccc12)NC(=O)CCNC(=O)OC(C)(C)C)C(=O)N[C@@H](CC(=O)O)C(=O)N[C@@H](Cc1ccccc1)C(N)=O`, the ATP level is active: 4.56.

Regarding `O=C1c2cccc(O)c2C(=O)c2c(O)cccc21`, the ATP level is inactive: -1.22.

Regarding `CCOC(N)=O`, the ATP level is inactive: -24.7.

On to `COc1ccc(-c2coc3cc(O)ccc3c2=O)c(OC)c1`, for which the ATP level is inactive: -2.77.

In the case of `C[C@H]1[C@H](C)CC[C@]2(C(=O)O)CC[C@]3(C)C(=CC[C@@H]4[C@@]5(C)C[C@@H](O)[C@H](O)[C@@](C)(CO)[C@@H]5[C@H](O)C[C@]43C)[C@H]12`, the ATP level is inactive: 1.49.

`O=C(O)CCC(=O)c1ccc(-c2ccccc2)cc1`: the ATP level was inactive: 1.65.

For `CN1CCN2c3ccccc3Cc3ccccc3C2C1` (centres undefined), the ATP level is inactive: -10.6.

In the case of `CCC(C)C(NC)C(=O)O` (centres undefined), the ATP level is inactive: -0.174.

`N[C@@H](Cc1ccc(O)c(O)c1)C(=O)O`: the ATP level is inactive: 2.35.

With `CN(C)CCc1c[nH]c2ccc(CS(=O)(=O)N3CCCC3)cc12`, the ATP level is inactive: -0.217.

Take `CC(=O)O[C@H]1CC[C@@]2(C)C(=CC=C3[C@@H]4CC[C@H]([C@H](C)/C=C/[C@H](C)C(C)C)[C@@]4(C)CC[C@@H]32)C1`: the ATP level is inactive: 0.597.

On to `COc1cc(O)cc(OC)c1OC`, for which the ATP level was inactive: 0.785.

As to `O=C(NC(Cc1cc(=O)[nH]c2ccccc12)C(=O)O)c1ccc(Cl)cc1` (centres undefined), the ATP level was inactive: 0.912.

With `CC(C)(C)NC[C@H](O)COc1cccc2c1CCCC2=O`, the ATP level was inactive: -1.48.

Consider `C[N+](C)(C)CCOC(N)=O`, for which the ATP level was inactive: -0.669.

For `COC(=O)[C@H]1[C@H]2C[C@H]3c4[nH]c5cc(OC)ccc5c4CCN3C[C@H]2C[C@@H](OC(=O)c2cc(OC)c(OC)c(OC)c2)[C@@H]1OC`, the ATP level was inactive: -2.64.

For `COC(=O)/C=C/C(=O)OC`, the ATP level was active: 3.36.

Turning to `C[C@H](CCC(=O)O)[C@H]1CC[C@H]2[C@@H]3C(=O)C[C@@H]4CC(=O)CC[C@]4(C)[C@H]3CC(=O)[C@]12C`, the ATP level was inactive: 1.4 and inactive: 1.13.

Turning to `CO[C@H]1C[C@H](O[C@@H]2/C(C)=C/C[C@@H]3C[C@@H](C[C@]4(CC[C@H](C)[C@@H](C5CCCCC5)O4)O3)OC(=O)[C@@H]3C=C(C)/C(=N/O)[C@H]4OC/C(=C\C=C\[C@@H]2C)[C@]43O)O[C@@H](C)[C@@H]1O`, the ATP level is inactive: -12.1.

Regarding `Cc1nc2sccn2c(=O)c1CCN1CCC(=C(c2ccc(F)cc2)c2ccc(F)cc2)CC1`, the ATP level was inactive: -6.45.

For the compound `O=C1c2c(O)ccc(O)c2C(=O)c2c(NCCNCCO)ccc(NCCNCCO)c21`, the ATP level is inactive: -35.2.

For `CCc1nn(CCCN2CCN(c3cccc(Cl)c3)CC2)c(=O)n1CCOc1ccccc1`, the ATP level was inactive: -1.08.

Turning to `CCCNC(C)(C)COC(=O)c1ccccc1`, the ATP level was inactive: -0.519.

Consider `COc1ccc(C(C)=O)c(OC)c1`, for which the ATP level was inactive: 1.51.

Take `CC(NCCc1ccc(O)cc1)C(O)c1ccc(O)cc1` (centres undefined): the ATP level was inactive: -12.7.

Regarding `NC(Cc1ccc(Cl)cc1)C(=O)O` (racemic), the ATP level was inactive: 0.578.

Turning to `O=C1C=CC2=C3c4cc(O)c(O)cc4CC3(O)COC2=C1O` (centres undefined), the ATP level is active: 3.76.

As to `CCC1(C)CC(=O)NC1=O` (centres undefined), the ATP level is inactive: 1.11.

Regarding `NC[C@@H]1O[C@H](O[C@H]2[C@@H](O)[C@H](O[C@@H]3[C@@H](O)[C@H](N)C[C@H](N)[C@H]3O[C@H]3O[C@H](CN)[C@@H](O)[C@H](O)[C@H]3N)O[C@@H]2CO)[C@H](N)[C@@H](O)[C@@H]1O`, the ATP level was inactive: 1.32.

As for `NC1CCN(c2c(F)cc3c(=O)c(C(=O)O)cn(C4CC4)c3c2Cl)C1` (centres undefined), the ATP level was inactive: -3.24.

On to `CC(=O)Nc1ccc(OC(C)=O)cc1`, for which the ATP level was inactive: 0.259.

For `O=[N+]([O-])c1ccc(O)c2ncccc12`, the ATP level was inactive: -0.596.

As to `CCCc1nn(C)c2c(=O)[nH]c(-c3cc(S(=O)(=O)N4CCN(C)CC4)ccc3OCC)nc12`, the ATP level was inactive: 1.85.

Regarding `CC(O)(CC(=O)O)CC(=O)O`, the ATP level is inactive: -10.3.

`CCCCS(=N)(=O)CCC(N)C(=O)O` (centres undefined): the ATP level is active: 4.12.

For `C[C@@H]1CN(c2c(F)c(F)c3c(=O)c(C(=O)O)cn(C4CC4)c3c2F)C[C@H](C)N1`, the ATP level was inactive: -1.18.

For `CC(=O)Oc1ccc(C(c2ccc(OC(C)=O)cc2)c2ccccn2)cc1`, the ATP level was inactive: -3.2.

As for `CCOC(=O)CC(=O)N1CCSC1COc1ccccc1OC` (centres undefined), the ATP level was inactive: -0.93.

For `N=c1nc(N2CCCCC2)cc(N)n1O`, the ATP level is inactive: 0.414.

For `C[C@@H]1CC[C@@]2(OC1)O[C@H]1C[C@H]3[C@@H]4CC=C5C[C@@H](O)CC[C@]5(C)[C@H]4CC[C@]3(C)[C@H]1[C@@H]2C`, the ATP level is inactive: 0.765.

As to `OCCc1ccccc1`, the ATP level is inactive: 0.699.

Take `O=C(O)c1ccccc1Nc1cccc(C(F)(F)F)c1`: the ATP level was inactive: 1.93.

Consider `CC(=O)Nc1ccc(S(=O)(=O)c2ccc(NC(C)=O)cc2)cc1`, for which the ATP level is inactive: -0.151.

As to `O=C1O[C@H]([C@@H](O)CO)C(O)=C1O`, the ATP level is inactive: 0.577.

For `Clc1ccc(C(c2ccccc2Cl)C(Cl)Cl)cc1` (centres undefined), the ATP level was inactive: -0.802.

As for `O=C(O)c1ccc2c(c1)OCO2`, the ATP level is inactive: -0.464.

Regarding `O=C(/C=C/c1ccccc1)c1ccc(O)cc1`, the ATP level was inactive: 0.892.

For `CN(C)CCOC(=O)C(c1ccccc1)C1(O)CCCC1` (centres undefined), the ATP level was inactive: 1.38.

For the compound `CCc1cc(Cl)c(OC)c(C(=O)NC[C@@H]2CCCN2CC)c1O`, the ATP level was inactive: -0.786.

`C[C@H](N[C@@H](CCc1ccccc1)C(=O)O)C(=O)N1Cc2ccccc2C[C@H]1C(=O)O`: the ATP level was inactive: 1.93.

Turning to `Nc1ccc(/N=N/c2ccccc2)c(N)n1`, the ATP level is inactive: 1.68.

`Cc1c(S(=O)(=O)O)oc2c1C(=O)C(=O)c1c-2ccc2c1CCCC2(C)C`: the ATP level was inactive: -0.519.

For the compound `NCCCS(=O)(=O)O`, the ATP level was inactive: 0.455.

For the compound `Nc1nc(/C(=C/CC(=O)O)C(=O)N[C@@H]2C(=O)N3C(C(=O)O)=CCS[C@H]23)cs1`, the ATP level is inactive: -1.23.

In the case of `CC1(C)CC2C1CC[C@]1(C)CCC3C(C(=O)O)CC(=O)O[C@@]32C1` (some centres undefined) [3-HYDROXY-4-(SUCCIN-2-YL)-CARYOLANE delta-LACTONE], the ATP level was inactive: 1.87.

Turning to `CCCNC(=O)NS(=O)(=O)c1ccc(Cl)cc1`, the ATP level was inactive: -11.

Take `CCN(CC)C(C)CN1c2ccccc2Sc2ccccc21` (centres undefined): the ATP level was inactive: 2.56.

For `CC(=O)O[C@]1(C(C)=O)CC[C@H]2[C@@H]3C=C(Cl)C4=CC(=O)CC[C@]4(C)[C@H]3CC[C@@]21C`, the ATP level is inactive: -5.38.

Turning to `Cc1cc(O)c(C(=O)N[C@@H](C(=O)N[C@@H]2C(=O)N3C(C(=O)O)=C(CSc4nnnn4C)CS[C@H]23)c2ccc(O)cc2)cn1`, the ATP level was inactive: 1.19.

As to `CO[C@H]1/C=C/O[C@@]2(C)Oc3c(C)c(O)c4c(O)c(c5c(nc6cc(C)ccn65)c4c3C2=O)NC(=O)/C(C)=C\C=C\[C@H](C)[C@H](O)[C@@H](C)[C@@H](O)[C@@H](C)[C@H](OC(C)=O)[C@@H]1C`, the ATP level was inactive: -0.323.

Consider `Clc1cccc(Cl)c1NC1=NCCN1`, for which the ATP level is inactive: -0.0448.

In the case of `CCCCCCCCCCCCCCCC(=O)OC[C@H](O)[C@H]1OC(=O)C(O)=C1O`, the ATP level is inactive: 2.09.

For the compound `Nc1nc2c(ncn2COC(CO)CO)c(=O)[nH]1`, the ATP level is inactive: 1.03.

On to `NCCCCCC(=O)O`, for which the ATP level is inactive: 1.11.

Turning to `CC(=O)OC/C=C(\C)CC/C=C(\C)CC/C=C(\C)CC/C=C(\C)CC/C=C(\C)CC/C=C(\C)CC/C=C(\C)CC/C=C(\C)CCC=C(C)C`, the ATP level is inactive: 0.546.

As for `CN(C)C(=N)NC(=N)N`, the ATP level is inactive: 1.58.

As for `CC1CC2C3CCC4=CC(=O)C=CC4(C)C3(F)C(O)CC2(C)C1C(=O)CO` (centres undefined), the ATP level is inactive: 2.1.

Take `CC=CC(=O)N(CC)c1ccccc1C`: the ATP level is inactive: -0.575.

Take `CNCCc1ccccn1`: the ATP level was inactive: 0.83.

Turning to `CC1=C(C)C(=O)C(C(CCCCCC(=O)O)c2ccccc2)=C(C)C1=O` (centres undefined), the ATP level was inactive: 2.06.

Consider `C[C@H]1[C@H](C)CC[C@]2(C(=O)O)CC[C@]3(C)C(=CC[C@@H]4[C@@]5(C)CC[C@H](O)C(C)(C)[C@@H]5CC[C@]43C)[C@H]12`, for which the ATP level is inactive: -2.94.

On to `O=C(c1ccc(F)cc1)C1CCN(CCn2c(=O)[nH]c3ccccc3c2=O)CC1`, for which the ATP level is inactive: -0.226.

With `CCN(CC)C(=O)c1ccc(O)c(OC)c1`, the ATP level is inactive: 1.82.

As to `COc1ccc(-c2cc(=O)c3c(O)c(OC)c(OC)c(OC)c3o2)cc1`, the ATP level is inactive: -2.83.

On to `NC1(C(=O)O)CC1`, for which the ATP level was inactive: 0.104.

Turning to `Oc1cc2c(cc1O)C1c3ccc(O)c(O)c3OCC1(O)C2` (centres undefined), the ATP level was inactive: -0.556.

For `CC(=O)O[C@@H]1C[C@H]2C(C)(C)C(=O)C=C[C@]2(C)[C@H]2CC[C@@]3(C)[C@H](c4ccoc4)OC(=O)[C@H]4O[C@]43[C@@]21C`, the ATP level was inactive: -13.3.

On to `CCCOc1ccc2[nH]c(NC(=O)OC)nc2c1`, for which the ATP level was inactive: -4.11.

As to `Cc1cc2nc3c(=O)[nH]c(=O)nc-3n(C[C@H](O)[C@H](O)[C@H](O)CO)c2cc1C`, the ATP level is inactive: -0.32.

With `CC[C@H](C)[C@H]1O[C@]2(C=C[C@@H]1C)C[C@@H]1C[C@@H](C/C=C(\C)[C@@H](O[C@H]3C[C@H](OC)[C@@H](O[C@H]4C[C@H](OC)[C@@H](O)[C@H](C)O4)[C@H](C)O3)[C@@H](C)/C=C/C=C3\CO[C@@H]4[C@H](OC)C(C)=C[C@@H](C(=O)O1)[C@]34O)O2`, the ATP level is inactive: -18.1.

Consider `CN(C)CCOC(c1ccccc1)c1ccccc1.Cn1c(=O)c2[nH]c(Cl)nc2n(C)c1=O`, for which the ATP level is inactive: -2.78.

For the origin of these results see the supplement of paper PMC6289059.
